# These are yes or no findings as the source states them, for the method shown. In cells and extracts the contact can be indirect.
# Molecular target: poliovirus VP0 C-terminally fused to EGFP (poliovirus type I Mahoney) (UniProt P03300)
# Assay: co-IP
substance,measurement,value
p62/SQSTM1 (from UniProt Q13501 1-440),binding,no binding

# Reference: paper PMC8402707
